PMC8994742

Legend:
mKvβ1.1CFP (mouse) = molecular target: T1, mKvβ1.1CFP (mouse) (UniProt P63143); assay: co-IP; lysates of HEK 293 cells transfected with Kvβ1.1CFP or Kvβ2.1CFP (150 mM NaCl, 50 mM HEPES, 1% Triton X-100, pH 7.4); anti-GFP antibody crosslinked to protein A Sepharose, 2 h at RT; immunoblot against the endogenous partner
T1 sequence: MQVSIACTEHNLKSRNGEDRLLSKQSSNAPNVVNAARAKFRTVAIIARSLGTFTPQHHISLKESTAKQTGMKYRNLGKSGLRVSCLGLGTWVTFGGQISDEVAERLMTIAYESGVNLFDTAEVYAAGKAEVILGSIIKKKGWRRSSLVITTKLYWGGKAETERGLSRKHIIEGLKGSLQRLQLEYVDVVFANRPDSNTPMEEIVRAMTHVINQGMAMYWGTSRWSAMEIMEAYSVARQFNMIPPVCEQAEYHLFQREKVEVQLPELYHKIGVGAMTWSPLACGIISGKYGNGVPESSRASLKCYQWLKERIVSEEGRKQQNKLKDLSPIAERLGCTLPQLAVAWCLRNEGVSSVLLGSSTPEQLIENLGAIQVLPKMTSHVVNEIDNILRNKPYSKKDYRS

mKvβ2.1CFP (mouse) = molecular target: T2, mKvβ2.1CFP (mouse) (UniProt P62482); assay: as above
T2 sequence: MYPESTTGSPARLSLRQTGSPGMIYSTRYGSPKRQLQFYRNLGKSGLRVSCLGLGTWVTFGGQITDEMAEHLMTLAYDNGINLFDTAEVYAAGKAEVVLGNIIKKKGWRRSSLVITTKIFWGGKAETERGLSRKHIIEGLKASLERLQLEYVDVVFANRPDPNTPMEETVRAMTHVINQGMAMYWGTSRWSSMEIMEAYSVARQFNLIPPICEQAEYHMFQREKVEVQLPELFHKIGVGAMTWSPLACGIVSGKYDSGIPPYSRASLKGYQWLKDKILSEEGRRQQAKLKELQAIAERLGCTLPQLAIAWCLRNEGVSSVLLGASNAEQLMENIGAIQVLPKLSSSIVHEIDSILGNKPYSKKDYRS

“caveolin (human (endogenous in HEK 293))” was tested, and the binding (mKvβ1.1CFP (mouse)) was “no binding” and the binding (mKvβ2.1CFP (mouse)) was “no binding”.

Results are given in words; binding and its absence hold for the method and conditions named. Binding seen in cells or lysates may run through a third protein.
